## Screening data, single-dose tests

Data taken from ChEMBL document CHEMBL3988442, “University of Dundee, Small-Polar-MMV Screening Library” (2021).

Results are given as percent effect.
How 0% and 100% were set is not recorded. Most values in the screen are low, and negative values occur.
This is an unselected part of the compounds tested.

A: 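Assay of Toxoplasma gondii numbers, read through their beta-galactosidase reporter with a colour substrate. Tested at 10 µM. Higher reads as fewer parasites (inferred from which compounds were picked for retests). Size under these conditions: about 67,000 compounds, about 260 of them at 50% or above in at least one test.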
B: 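Whole-parasite assay of Trypanosoma brucei over 72 hours; the read-out is not stated. Concentration: 30 µM. The record gives no direction; compounds that gave an IC50 in retests scored well above the rest, so higher reads as stronger inhibition. Values scatter widely below zero; nearly all retest evidence comes from the higher of the two concentrations used. About 64,000 compounds were tested under these conditions; 1.5% (about 940) showed 50% or more at least once.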

{"compound": "Cc1cnn(CCC(=O)N2CCC(Nc3cccnn3)CC2)c1", "A": -7.065, "B": -51.9}
{"compound": "Cc1ccsc1CN(CCN(C)C)C(=O)c1ccc(C#N)nc1", "A": 6.33, "B": -227}
{"compound": "CCCC(=O)N1CCC(O)(Cn2c(CC)nc3ccccc3c2=O)CC1.Cl", "A": -0.06406, "B": 13.53}
{"compound": "Cc1ccc(C(NCC(=O)N2CCNC(=O)C2)C(F)(F)F)cc1", "stereo": "stereo unspecified", "A": 0.2429, "B": -16.67}
{"compound": "CNC(=O)[C@@H]1C[C@@H](N)CN1C1CCN(c2ccccc2F)CC1", "A": -4.868, "B": 11.28}
{"compound": "CCc1ccc(CNC(=O)NC(C)CN2CCOCC2)s1", "stereo": "stereo unspecified", "A": 2.966, "B": 14.14}
{"compound": "COCCN(Cc1ccccn1)C(=O)c1ccc(=O)n(C)c1", "B": -22.51}
{"compound": "COc1cc(CNCc2c(C)nn(C)c2N(C)C)ccc1OCCO", "A": 18.29, "B": -10.92}
{"compound": "O=C(NCCc1cc(F)ccc1F)NC(CO)c1ccccc1", "stereo": "stereo unspecified", "A": -0.3488, "B": 7.117}
{"compound": "CCOCc1nnc2n1CCN(Cc1c(C)noc1C)CC2.O=C(O)C(F)(F)F", "A": 19.75, "B": -32.92}
{"compound": "CC(C)(C)NC(=O)CNc1ncc(Br)cn1", "A": -21.16, "B": -87.67}
{"compound": "Cc1cc(CNC(=O)Cc2cccs2)ccc1S(C)(=O)=O", "A": -11.8, "B": -29.55}
{"compound": "CC(=O)NCCNC(=O)N(C)Cc1ccc2c(c1)OCCO2", "A": 4.739, "B": 4.885}
{"compound": "COCCN(CCOC)c1ncccc1Cl", "A": -11.97, "B": -10.15}
{"compound": "Cn1ccc(CS(=O)(=O)Cc2cccc(F)c2)cc1=O", "A": 0.5895, "B": -16.72}
{"compound": "Cc1ccc(-c2nc(CNC3CCc4ncnn4C3)co2)cc1", "stereo": "stereo unspecified", "A": 6.589, "B": 4.268}
{"compound": "O=c1c2ccc(Cl)cc2ncn1CCCN1CCCCC1CO", "stereo": "stereo unspecified", "B": -17.62}
{"compound": "COc1cc(C(=O)NC2COc3ccccc3C2)ccc1OCC(N)=O", "stereo": "stereo unspecified", "A": 4.289, "B": -6.614}
{"compound": "CCc1cn[nH]c1C1CCN(C(=O)c2cccc(O)c2C)CC1", "A": 5.056, "B": 9.133}
{"compound": "CC(C)c1nnc(CNCC2CCCN2c2cccnn2)o1", "stereo": "stereo unspecified", "A": 4.515, "B": -44.63}
{"compound": "Cc1nc(CN2CCN(C(=O)C(C(C)C)n3cncn3)CC2)cs1", "stereo": "stereo unspecified", "A": -18.59, "B": -16.37}
{"compound": "COc1ccc(CN(C)C(=O)NCc2c(C)cc(C)nc2OC)cc1", "A": -30.02, "B": -1.737}
{"compound": "Cc1nc(C)c(C(=O)Nc2cccc(CN3CCC(CO)CC3)c2)o1", "A": -17.91, "B": -26.4}
{"compound": "Cc1c[nH]c(CN(C)C(=O)c2ccc(CSc3nnc[nH]3)o2)n1", "A": -14.19}
{"compound": "CCC[C@H]1CN(Cc2cc(C)no2)C[C@@H]1NC(=O)C1(COC)CCC1", "A": 6.821, "B": -28.04}
{"compound": "O=C(c1cccc(CNS(=O)(=O)c2ccc(F)cc2)c1)N1CCCC1", "A": 14.99}
{"compound": "O=C(NCc1ccc(Br)cc1)NCC1CCOC1", "stereo": "stereo unspecified", "A": -0.2316, "B": 3.733}
{"compound": "O=C(N[C@@H]1CCNC[C@H]1O)c1cc(F)cc(Cl)c1", "A": 7.183, "B": -32.07}
{"compound": "CC(C)c1n[nH]c(C2CN(Cc3nnc(C4CC4)o3)CCO2)n1", "stereo": "stereo unspecified", "B": -56.91}
{"compound": "CC(=O)N(Cc1ncc(C)o1)C1CCN(CCc2cnn(C)c2)C1", "stereo": "stereo unspecified", "A": -1.977, "B": 1.223}
{"compound": "CN1CCN(S(C)(=O)=O)Cc2cccnc21", "A": -9.042, "B": 7.476}
{"compound": "CNC(=O)C1(N2CCC[C@H]2C(=O)NC2CCCCC2)CCOCC1.Cl", "A": -6.77, "B": -8.432}
{"compound": "CN(C1CCN(c2ccccn2)CC1)S(=O)(=O)c1cccc(F)c1", "A": 0.05348, "B": 3.479}
{"compound": "CCn1cc(C(=O)NCc2csc(Br)c2)cn1", "A": -5.118, "B": 23.7}
{"compound": "CC(O)CN1CCC(CNCc2cccc(Br)c2)CC1", "stereo": "stereo unspecified", "A": 2.814, "B": -7.469}
{"compound": "O=C(CCc1cc(Br)cs1)NCCCn1ccnc1", "A": -10.67, "B": 3.495}
{"compound": "COc1ncccc1CNCc1c(C(C)C)nn(C)c1OC", "A": 4.438, "B": -10.65}
{"compound": "O=C(O)C(F)(F)F.O=C(O)C(F)(F)F.[H][C@@]12C[C@@H](C(=O)NC(C)C)C[C@@]1([H])N(Cc1cccnc1)CCO2", "A": -0.1068, "B": -43.64}
{"compound": "CN(C)C(=O)c1ccc(C2CCCN2C(=O)c2cccc3c2OCC3)s1", "stereo": "stereo unspecified", "A": -7.305, "B": 19.1}

The first 5 entries again:

| compound | A | B |
|---|---|---|
| `Cc1cnn(CCC(=O)N2CCC(Nc3cccnn3)CC2)c1` | -7.065 | -51.9 |
| `Cc1ccsc1CN(CCN(C)C)C(=O)c1ccc(C#N)nc1` | 6.33 | -227 |
| `CCCC(=O)N1CCC(O)(Cn2c(CC)nc3ccccc3c2=O)CC1.Cl` | -0.06406 | 13.53 |
| `Cc1ccc(C(NCC(=O)N2CCNC(=O)C2)C(F)(F)F)cc1` (stereo unspecified) | 0.2429 | -16.67 |
| `CNC(=O)[C@@H]1C[C@@H](N)CN1C1CCN(c2ccccc2F)CC1` | -4.868 | 11.28 |